Results taken from patent US9408853B2, “Iridium/rhodium anti-cancer compounds” (University of Warwick, priority 2010, dated 2016).

Experiment: Reaction of ZL33A with 1,4-NADH (hydride transfer, 1H NMR)
[1] = ZL33A:1,4-NADH 1:3, 298 K, 10 min
[2] = ZL33A:1,4-NADH 1:3, 298 K, 22 h
[3] = ZL33A:1,4-NADH 1:3, 298 K, 33 h
[4] = ZL33A:1,4-NADH 1.5:1, 298 K, 10 min
[5] = ZL33A:1,4-NADH 1.5:1, 298 K, 2 h
[6] = ZL33A:1,4-NADH 1.5:1, 298 K, 10 h

[(η^5-C5Me4C6H5)Ir(phen)(H2O)]^2+ [ZL33A]
1,4-NADH reacted with the aqua complex (in words) (1,4-NADH:ZL33A 1:1.5, <10 min): all the 1,4-NADH reacted
Integral ratio, 1,4-NADH (NAD+ = 1) [1]: 1.45
Integral ratio, Aqua complex (NAD+ = 1) [1]: 0.25
Integral ratio, Hydride complex (NAD+ = 1) [1]: 0.6
Integral ratio, 1,4-NADH (NAD+ = 1) [2]: 1.3
Integral ratio, Aqua complex (NAD+ = 1) [2]: 0.16
Integral ratio, Hydride complex (NAD+ = 1) [2]: 0.5
Integral ratio, 1,4-NADH (NAD+ = 1) [3]: 0.5
Integral ratio, Aqua complex (NAD+ = 1) [3]: 0.45
Integral ratio, Hydride complex (NAD+ = 1) [3]: 0.07
Integral ratio, Aqua complex (NAD+ = 1) [4]: 1
Integral ratio, Hydride complex (NAD+ = 1) [4]: 0.5
Integral ratio, Aqua complex (NAD+ = 1) [5]: 1.3
Integral ratio, Hydride complex (NAD+ = 1) [5]: 0.25
Integral ratio, Aqua complex (NAD+ = 1) [6]: 1.6
Integral ratio, Hydride complex (NAD+ = 1) [6]: 0
1,4-NADH reacted with the aqua complex (three equiv 1,4-NADH, 2 mM ZL33A, 298 K, within 10 min): 40%
